The source of these data is paper PMC8062120.

Protein sequences, listed by entry. Tags and fused reporters are not part of them.
UniProt P35609: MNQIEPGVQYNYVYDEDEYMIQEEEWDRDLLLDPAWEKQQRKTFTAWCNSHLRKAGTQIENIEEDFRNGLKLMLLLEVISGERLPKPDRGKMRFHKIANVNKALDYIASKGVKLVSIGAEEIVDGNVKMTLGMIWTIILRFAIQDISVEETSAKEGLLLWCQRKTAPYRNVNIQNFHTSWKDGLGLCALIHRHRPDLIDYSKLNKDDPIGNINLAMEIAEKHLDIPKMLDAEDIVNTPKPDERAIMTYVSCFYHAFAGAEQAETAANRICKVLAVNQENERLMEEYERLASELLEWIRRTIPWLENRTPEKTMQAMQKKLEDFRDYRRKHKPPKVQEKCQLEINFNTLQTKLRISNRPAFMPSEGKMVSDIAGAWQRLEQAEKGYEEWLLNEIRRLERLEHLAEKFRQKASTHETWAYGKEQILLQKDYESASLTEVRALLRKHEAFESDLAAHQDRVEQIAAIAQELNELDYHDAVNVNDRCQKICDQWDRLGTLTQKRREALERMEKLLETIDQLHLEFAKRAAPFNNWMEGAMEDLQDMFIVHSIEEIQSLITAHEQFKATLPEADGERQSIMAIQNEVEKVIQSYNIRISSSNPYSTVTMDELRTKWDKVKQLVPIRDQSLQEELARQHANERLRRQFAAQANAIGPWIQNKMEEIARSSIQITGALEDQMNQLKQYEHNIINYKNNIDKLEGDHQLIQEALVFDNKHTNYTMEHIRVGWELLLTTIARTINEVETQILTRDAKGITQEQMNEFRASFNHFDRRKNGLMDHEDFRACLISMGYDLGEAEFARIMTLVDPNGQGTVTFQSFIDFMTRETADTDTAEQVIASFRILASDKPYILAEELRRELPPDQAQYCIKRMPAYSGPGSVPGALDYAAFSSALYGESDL

The target of test [1] is Myotilin Ig1Ig2^250–498 (human) (UniProt Q9UBF9). Put plainly: SAXS; batch SAXS at high or comparable concentrations; Ig1Ig2^250–444 up to 14.12 mg/ml, Ig1Ig2^250–498 up to 42.8 mg/ml, Ig1Ig2^220–452 up to 52 or 36.6 mg/ml, R405K up to 45.5 mg/ml; 20 mM HEPES, 150 mM NaCl, 5% glycerol, 1 mM DTT, pH 7.4 (one 220–452 set in 20 mM MES, 200 mM NaCl, pH 6.0); mass from I0, Rg, Dmax, P(r); monomer to dimer; both ….

Test [2] deals with T1, Full-length myotilin with N-terminal thioredoxin tag (Trx-MYOT) (human) (UniProt Q9UBF9).
T1 sequence: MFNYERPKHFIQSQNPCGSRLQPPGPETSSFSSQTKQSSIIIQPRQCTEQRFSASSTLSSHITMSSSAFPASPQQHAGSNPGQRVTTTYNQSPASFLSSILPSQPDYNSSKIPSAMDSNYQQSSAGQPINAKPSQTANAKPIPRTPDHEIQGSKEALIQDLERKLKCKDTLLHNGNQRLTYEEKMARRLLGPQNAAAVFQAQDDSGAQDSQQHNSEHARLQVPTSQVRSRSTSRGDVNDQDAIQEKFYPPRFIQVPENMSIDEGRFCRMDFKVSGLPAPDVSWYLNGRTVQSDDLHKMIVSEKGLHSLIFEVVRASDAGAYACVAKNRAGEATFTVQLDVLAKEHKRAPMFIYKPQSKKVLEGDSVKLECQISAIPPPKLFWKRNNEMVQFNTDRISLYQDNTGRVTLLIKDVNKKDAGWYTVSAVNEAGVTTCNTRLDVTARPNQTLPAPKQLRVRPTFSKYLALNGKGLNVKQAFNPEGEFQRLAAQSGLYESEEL
In words: pull-down; Trx-MYOT (5 μM) mixed with α-actinin-2 constructs (2.5 to 7.5 μM) in buffer P (20 mM Tris-HCl, 100 mM NaCl, 10 mM imidazole, 5% glycerol, pH 7.5), captured on Co2+-loaded Chelating Sepharose beads, room temperature; SDS-PAGE; both purified.

These are yes or no findings as the source states them, for the method shown. Some entries that bind do so weakly or less than the wild type. For some assays here: Sequences can lack the tags named with a protein.

As for “Myotilin Ig1Ig2^250–498 (from UniProt Q9UBF9 250-498) (domain or fragment)”, the binding result in test [1] is “binds weakly”. On to “Wild-type α-actinin-2 (ACTN2-WT) (from UniProt P35609 1-894)”, for which the binding entry in test [2] is “no binding (tested: 2.5 to 7.5 μM)”.
